The values below come from article PMC6497791.

Chains of the proteins cited; added tags and fusions are not shown. Residues count along the entry.
UniProt P22723, residues 39-474: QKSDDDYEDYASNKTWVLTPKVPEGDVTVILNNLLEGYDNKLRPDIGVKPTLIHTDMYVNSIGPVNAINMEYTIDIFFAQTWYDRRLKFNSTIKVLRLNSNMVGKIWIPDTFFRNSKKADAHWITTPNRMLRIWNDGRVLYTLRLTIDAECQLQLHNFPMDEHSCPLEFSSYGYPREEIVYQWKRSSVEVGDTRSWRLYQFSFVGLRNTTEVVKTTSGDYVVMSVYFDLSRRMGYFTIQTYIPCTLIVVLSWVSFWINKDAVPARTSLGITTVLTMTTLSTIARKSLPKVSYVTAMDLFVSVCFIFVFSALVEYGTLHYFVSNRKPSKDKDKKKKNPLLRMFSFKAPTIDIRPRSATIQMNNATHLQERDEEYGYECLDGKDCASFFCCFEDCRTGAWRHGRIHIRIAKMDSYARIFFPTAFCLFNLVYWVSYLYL
UniProt P11798: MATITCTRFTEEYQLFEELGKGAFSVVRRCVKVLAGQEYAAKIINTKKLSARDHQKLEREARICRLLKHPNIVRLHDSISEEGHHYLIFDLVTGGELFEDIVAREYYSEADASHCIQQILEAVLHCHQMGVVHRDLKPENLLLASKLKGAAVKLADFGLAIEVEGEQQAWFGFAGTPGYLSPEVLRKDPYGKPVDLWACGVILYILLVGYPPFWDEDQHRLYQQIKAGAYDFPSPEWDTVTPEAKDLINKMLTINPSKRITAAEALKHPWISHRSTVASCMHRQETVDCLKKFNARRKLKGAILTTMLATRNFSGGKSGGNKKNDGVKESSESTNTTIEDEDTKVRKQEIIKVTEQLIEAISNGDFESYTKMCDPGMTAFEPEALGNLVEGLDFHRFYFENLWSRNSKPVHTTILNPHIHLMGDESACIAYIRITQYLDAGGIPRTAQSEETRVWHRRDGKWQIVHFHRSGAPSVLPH
UniProt P63044: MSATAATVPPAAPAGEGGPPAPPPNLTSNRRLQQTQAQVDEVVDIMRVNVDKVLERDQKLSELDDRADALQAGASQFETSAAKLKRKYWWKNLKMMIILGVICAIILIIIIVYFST
UniProt P63011: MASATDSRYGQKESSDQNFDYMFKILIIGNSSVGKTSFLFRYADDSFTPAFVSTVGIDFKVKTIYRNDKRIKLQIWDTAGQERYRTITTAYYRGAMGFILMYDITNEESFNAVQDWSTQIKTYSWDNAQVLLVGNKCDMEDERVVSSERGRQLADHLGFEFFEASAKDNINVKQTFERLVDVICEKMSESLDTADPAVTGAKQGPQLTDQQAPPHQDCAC
UniProt P18760: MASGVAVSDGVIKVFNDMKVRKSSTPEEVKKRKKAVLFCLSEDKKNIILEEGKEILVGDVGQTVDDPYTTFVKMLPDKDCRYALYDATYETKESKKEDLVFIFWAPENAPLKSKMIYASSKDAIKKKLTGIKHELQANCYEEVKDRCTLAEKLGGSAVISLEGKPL
UniProt P62259: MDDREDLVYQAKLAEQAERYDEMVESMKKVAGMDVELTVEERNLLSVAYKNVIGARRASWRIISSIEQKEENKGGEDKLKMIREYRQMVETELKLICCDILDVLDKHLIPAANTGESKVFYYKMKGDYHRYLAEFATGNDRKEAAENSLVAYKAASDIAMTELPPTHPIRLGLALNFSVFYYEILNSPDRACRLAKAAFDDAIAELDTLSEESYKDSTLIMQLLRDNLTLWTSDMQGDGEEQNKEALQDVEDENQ
UniProt Q3UGC7: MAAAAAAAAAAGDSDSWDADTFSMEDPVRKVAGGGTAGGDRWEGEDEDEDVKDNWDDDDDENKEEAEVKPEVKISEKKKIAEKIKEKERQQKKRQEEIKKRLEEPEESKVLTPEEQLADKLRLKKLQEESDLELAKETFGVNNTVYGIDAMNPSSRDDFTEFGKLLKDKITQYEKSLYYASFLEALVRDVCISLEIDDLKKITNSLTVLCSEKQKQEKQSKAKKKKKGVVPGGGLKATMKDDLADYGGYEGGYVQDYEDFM
UniProt Q9CYZ2: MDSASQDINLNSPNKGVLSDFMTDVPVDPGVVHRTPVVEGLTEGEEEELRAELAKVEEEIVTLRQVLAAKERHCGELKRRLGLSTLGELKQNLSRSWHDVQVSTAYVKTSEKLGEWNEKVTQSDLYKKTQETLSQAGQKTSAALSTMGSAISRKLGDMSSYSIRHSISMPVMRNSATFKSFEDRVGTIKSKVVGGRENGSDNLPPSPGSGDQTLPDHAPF
UniProt P97427: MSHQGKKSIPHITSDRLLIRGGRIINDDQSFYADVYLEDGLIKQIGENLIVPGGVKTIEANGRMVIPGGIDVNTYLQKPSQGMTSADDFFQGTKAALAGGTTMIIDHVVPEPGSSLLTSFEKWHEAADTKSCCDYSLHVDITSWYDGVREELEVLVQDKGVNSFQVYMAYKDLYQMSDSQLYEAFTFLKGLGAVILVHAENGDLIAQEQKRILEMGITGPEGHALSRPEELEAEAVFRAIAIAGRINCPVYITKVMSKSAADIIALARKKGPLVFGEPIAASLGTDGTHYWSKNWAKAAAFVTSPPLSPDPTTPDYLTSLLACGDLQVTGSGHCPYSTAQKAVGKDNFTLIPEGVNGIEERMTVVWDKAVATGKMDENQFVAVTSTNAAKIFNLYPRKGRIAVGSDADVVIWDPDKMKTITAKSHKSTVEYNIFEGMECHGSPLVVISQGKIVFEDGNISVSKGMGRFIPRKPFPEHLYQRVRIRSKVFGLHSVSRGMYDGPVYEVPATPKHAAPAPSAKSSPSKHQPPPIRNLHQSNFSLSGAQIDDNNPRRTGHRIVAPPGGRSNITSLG
UniProt O35129: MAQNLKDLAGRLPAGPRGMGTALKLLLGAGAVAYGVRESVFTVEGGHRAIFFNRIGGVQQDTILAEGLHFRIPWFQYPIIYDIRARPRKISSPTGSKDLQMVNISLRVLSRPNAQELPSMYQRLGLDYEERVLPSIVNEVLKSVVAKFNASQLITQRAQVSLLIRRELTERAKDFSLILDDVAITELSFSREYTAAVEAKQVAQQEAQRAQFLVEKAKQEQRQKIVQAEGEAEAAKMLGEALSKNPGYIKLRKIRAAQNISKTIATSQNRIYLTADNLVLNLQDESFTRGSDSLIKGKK
UniProt Q920I9: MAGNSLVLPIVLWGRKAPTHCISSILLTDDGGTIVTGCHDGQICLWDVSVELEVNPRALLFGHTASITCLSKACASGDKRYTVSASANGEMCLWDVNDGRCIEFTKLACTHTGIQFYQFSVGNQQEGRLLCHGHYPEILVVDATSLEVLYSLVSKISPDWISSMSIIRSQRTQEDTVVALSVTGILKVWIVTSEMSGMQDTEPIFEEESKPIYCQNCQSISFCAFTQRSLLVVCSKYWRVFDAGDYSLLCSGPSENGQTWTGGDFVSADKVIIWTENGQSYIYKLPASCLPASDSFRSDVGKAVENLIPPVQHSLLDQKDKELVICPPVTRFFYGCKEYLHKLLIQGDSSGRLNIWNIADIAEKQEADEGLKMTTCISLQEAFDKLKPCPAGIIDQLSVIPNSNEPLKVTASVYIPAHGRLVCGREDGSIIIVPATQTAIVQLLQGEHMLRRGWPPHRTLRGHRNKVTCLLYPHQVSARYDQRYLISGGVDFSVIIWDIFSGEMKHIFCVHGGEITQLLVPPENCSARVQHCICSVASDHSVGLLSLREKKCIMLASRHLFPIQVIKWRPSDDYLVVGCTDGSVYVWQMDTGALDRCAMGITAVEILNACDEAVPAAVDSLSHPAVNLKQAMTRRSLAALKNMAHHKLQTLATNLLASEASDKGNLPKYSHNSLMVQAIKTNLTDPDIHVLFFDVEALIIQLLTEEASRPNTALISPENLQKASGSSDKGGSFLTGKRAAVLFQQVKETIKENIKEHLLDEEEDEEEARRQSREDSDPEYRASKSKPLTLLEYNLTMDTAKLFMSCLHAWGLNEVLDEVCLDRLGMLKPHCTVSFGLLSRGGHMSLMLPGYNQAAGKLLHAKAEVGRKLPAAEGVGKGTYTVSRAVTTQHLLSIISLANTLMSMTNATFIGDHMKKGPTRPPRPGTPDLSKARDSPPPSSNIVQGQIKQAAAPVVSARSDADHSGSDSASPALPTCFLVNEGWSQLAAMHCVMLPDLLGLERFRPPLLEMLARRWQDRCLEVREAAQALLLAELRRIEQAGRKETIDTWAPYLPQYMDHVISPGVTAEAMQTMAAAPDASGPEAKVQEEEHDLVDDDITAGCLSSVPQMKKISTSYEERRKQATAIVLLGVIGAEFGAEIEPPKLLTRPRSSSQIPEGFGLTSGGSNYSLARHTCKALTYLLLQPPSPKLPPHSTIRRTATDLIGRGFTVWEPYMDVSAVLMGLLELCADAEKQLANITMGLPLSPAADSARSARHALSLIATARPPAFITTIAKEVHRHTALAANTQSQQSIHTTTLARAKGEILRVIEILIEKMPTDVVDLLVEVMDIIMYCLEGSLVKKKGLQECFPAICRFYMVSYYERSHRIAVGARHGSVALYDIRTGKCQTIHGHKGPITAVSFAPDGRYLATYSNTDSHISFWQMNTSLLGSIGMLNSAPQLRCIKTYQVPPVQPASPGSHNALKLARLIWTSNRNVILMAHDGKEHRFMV
UniProt Q60899: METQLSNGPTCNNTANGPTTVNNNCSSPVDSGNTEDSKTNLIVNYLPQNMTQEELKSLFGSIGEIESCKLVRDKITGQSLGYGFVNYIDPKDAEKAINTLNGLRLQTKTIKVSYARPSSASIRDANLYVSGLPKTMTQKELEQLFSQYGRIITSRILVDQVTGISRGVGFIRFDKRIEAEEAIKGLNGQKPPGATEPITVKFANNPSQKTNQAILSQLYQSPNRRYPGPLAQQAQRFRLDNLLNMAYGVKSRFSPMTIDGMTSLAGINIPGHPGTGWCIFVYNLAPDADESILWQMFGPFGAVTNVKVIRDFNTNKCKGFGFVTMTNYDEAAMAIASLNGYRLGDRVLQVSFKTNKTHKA
UniProt P80317: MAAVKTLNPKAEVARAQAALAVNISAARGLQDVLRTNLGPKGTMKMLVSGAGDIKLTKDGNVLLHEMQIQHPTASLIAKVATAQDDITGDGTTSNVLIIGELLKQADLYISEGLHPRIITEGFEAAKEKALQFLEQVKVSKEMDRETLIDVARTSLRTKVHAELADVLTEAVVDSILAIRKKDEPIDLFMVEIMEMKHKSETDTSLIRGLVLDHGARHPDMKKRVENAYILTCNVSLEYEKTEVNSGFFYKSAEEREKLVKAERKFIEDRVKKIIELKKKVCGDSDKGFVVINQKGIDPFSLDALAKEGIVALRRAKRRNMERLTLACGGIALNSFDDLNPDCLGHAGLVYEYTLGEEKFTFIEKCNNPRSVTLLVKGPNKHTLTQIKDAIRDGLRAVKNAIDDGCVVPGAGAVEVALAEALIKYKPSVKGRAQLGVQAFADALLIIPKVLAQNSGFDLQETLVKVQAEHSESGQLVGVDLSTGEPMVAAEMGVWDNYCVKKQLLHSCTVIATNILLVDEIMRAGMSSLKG
UniProt Q3UHB8: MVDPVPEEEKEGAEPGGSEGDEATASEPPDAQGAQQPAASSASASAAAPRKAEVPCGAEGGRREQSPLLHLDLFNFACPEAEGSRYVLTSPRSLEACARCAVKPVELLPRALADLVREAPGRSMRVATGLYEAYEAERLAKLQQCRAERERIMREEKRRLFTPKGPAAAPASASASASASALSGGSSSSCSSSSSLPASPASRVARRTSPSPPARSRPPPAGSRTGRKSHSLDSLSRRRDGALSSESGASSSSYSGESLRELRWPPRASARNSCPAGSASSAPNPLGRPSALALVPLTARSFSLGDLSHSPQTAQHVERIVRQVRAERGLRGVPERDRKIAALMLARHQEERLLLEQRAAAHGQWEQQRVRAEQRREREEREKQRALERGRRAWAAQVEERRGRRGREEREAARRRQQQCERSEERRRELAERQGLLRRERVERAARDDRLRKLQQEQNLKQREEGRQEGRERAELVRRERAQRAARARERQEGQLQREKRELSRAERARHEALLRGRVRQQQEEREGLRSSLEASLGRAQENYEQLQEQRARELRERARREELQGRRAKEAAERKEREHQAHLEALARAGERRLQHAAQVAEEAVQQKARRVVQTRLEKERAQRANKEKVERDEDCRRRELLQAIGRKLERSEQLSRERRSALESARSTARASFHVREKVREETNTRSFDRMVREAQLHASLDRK
UniProt Q922F4: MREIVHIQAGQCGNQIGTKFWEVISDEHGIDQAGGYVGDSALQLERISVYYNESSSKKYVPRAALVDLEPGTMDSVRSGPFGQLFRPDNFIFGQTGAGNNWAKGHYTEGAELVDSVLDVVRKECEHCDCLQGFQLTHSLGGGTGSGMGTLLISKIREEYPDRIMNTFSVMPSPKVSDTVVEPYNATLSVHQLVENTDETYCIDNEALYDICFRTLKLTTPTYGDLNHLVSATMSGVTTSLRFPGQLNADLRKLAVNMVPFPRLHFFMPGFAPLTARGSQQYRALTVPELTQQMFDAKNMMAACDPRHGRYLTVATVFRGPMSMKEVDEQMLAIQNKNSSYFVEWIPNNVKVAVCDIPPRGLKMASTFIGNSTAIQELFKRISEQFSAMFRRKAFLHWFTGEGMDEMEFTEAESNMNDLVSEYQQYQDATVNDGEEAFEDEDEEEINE

In the assay the target is GABA type A receptor γ2 subunit (mouse (endogenous in cortical tissue)) (UniProt P22723). In words: affinity purification with mass spectrometry; mouse cortical tissue lysate (mice injected with vehicle or 10 mg/kg DZP, 12 h) in co-IP buffer (50 mM Tris HCl pH 7.6, 50 mM NaCl, 0.25% Igepal, 1 mM EDTA), immunoprecipitated overnight with rabbit γ2 subunit antibody or rabbit IgG, Protein A Sepharose, 4°C; label-free HPLC-ESI-MS/MS; hits at least 3:1 enriched over IgG control.

These are yes or no findings as the source states them, for the method shown. Binding seen in cells or lysates may run through a third protein. A yes stands for co-enrichment or nearness to the bait. Other partners may have been found.

Turning to “Calcium/calmodulin dependent protein kinase II alpha (from UniProt P11798 1-478)”, the binding result is given as “binds”.

For the substance “Erythrocyte membrane protein band 4.1 like 1 (from UniProt Q9Z2H5 1-879)”, the binding entry is given as “binds”.

With “Synaptophysin (from UniProt Q62277 1-314)”, the binding result is given as “binds”.

As for “Vesicle associated membrane protein 2 (from UniProt P63044 1-116)”, the binding entry is on record as “binds”.

As for “Adaptor related protein complex 2 subunit alpha 1 (from UniProt P17426-2 1-955)”, the binding entry is reported as “binds”.

On to “RAB3A, member RAS oncogene family (from UniProt P63011 1-220)”, for which the binding result is “binds”.

On to “G protein subunit beta 1 (from UniProt P62874 1-340)”, for which the binding entry is “binds”.

As to “Glutamate metabotropic receptor 2 (from UniProt Q14BI2 19-872)”, the binding result is “binds”.

Turning to Cofilin 1 (from UniProt P18760 1-166), the binding entry is “binds”.

For “Tyrosine 3-monooxygenase/tryptophan 5-monooxygenase activation protein epsilon (14-3-3 epsilon) (from UniProt P62259 1-255)”, the binding entry was “binds”.

In the case of “Eukaryotic translation initiation factor 3 subunit J (from UniProt Q3UGC7 1-261)”, the binding entry is reported as “binds”.

Consider “RAB35, member RAS oncogene family (from UniProt Q6PHN9 1-201)”, for which the binding result is given as “binds”.

With “Tumor protein D52 like 2 (from UniProt Q9CYZ2 1-220)”, the binding entry was “binds”.

Take “Collapsin response mediator protein 1 (from UniProt P97427 1-572)”: the binding entry is “binds”.

Turning to “Potassium voltage-gated channel subfamily Q member 3 (from UniProt Q8K3F6 1-873)”, the binding entry was “binds”.

As to “Prohibitin 2 (from UniProt O35129 1-299)”, the binding result is given as “binds”.

“WD repeat domain 7 (from UniProt Q920I9 1-1489)”: the binding entry is given as “binds”.

With “Dimethylarginine dimethylaminohydrolase 1 (from UniProt Q9CWS0 1-285)”, the binding entry was “binds”.

Take “ELAV like RNA binding protein 2 (from UniProt Q60899 1-360)”: the binding result was “binds”.

In the case of “Fibronectin 1 (from UniProt P11276 33-2477)”, the binding result was “binds”.

Turning to “Synaptotagmin 1 (from UniProt P46096 1-421)”, the binding entry is given as “binds”.

As for “RNA binding motif protein, X-linked like-1 (from UniProt Q91VM5 1-388)”, the binding result is on record as “binds”.

Take “Chaperonin containing TCP1 subunit 6A (from UniProt P80317 1-531)”: the binding entry was “binds”.

For “Coiled-coil domain containing 177 (from UniProt Q3UHB8 1-706)”, the binding result is listed as “binds”.

In the case of “Heat shock protein family A (Hsp70) member 9 (from UniProt P38647 47-679)”, the binding entry is on record as “binds”.

“Cyclin dependent kinase 5 (from UniProt P49615 1-292)”: the binding entry is reported as “binds”.

Consider “Proteasome 26S subunit, ATPase 6 (from UniProt P62334 1-389)”, for which the binding result is “binds”.

For the substance “Heterogeneous nuclear ribonucleoprotein A3 (from UniProt Q8BG05 1-379)”, the binding result is recorded as “binds”.

For “Tubulin beta 6 class V (from UniProt Q922F4 1-447)”, the binding entry is given as “binds”.

As for “Pyruvate kinase M1/2 (from UniProt P52480 1-531)”, the binding entry is “binds”.

For the substance “Protein phosphatase 3 catalytic subunit alpha (from UniProt P63328 1-521)”, the binding entry is listed as “binds”.

Consider “ATP synthase F1 subunit beta (from UniProt P56480 47-529)”, for which the binding result is recorded as “binds”.
